From patent publication US12516015B2 (AMALIVE LIMITED, priority 2009, dated 2026)
Read-outs that look alike come from different tables or passages of the source.

NCCC[C@H](N)C(=O)O.O=C(O)Cc1ccccc1 [L-ornithine phenyl acetate]
Results (crystalline form of precipitate) (Test 436, Anti-Solvent (IPA) Addition (4° C.), 1,4-dioxane: 10% H20): No Solid | Results (crystalline form of precipitate) (Test 437, Anti-Solvent (IPA) Addition (−21° C.), 1,4-dioxane: 10% H20): No Solid | Results (crystalline form of precipitate) (Test 438, Anti-Solvent (Ethanol) Addition Ambient Temperature, 1,4-dioxane: 10% H20): No Solid | Results (crystalline form of precipitate) (Test 439, Anti-Solvent (Ethanol) Addition (4° C.), 1,4-dioxane: 10% H20): No Solid | Results (crystalline form of precipitate) (Test 440, Anti-Solvent (Ethanol) Addition (−21° C.), 1,4-dioxane: 10% H20): No Solid | Results (crystalline form of precipitate) (Test 445, Anti-Solvent (IPA) Addition Elevated Temperature, MeOH: 5% H20): Form II | Results (crystalline form of precipitate) (Test 446, Anti-Solvent (IPA) Addition Ambient Temperature, MeOH: 5% H20): Form II | Results (crystalline form of precipitate) (Test 447, Anti-Solvent (IPA) Addition (4° C.), MeOH: 5% H20): Form II | Results (crystalline form of precipitate) (Test 448, Anti-Solvent (IPA) Addition (−21° C.), MeOH: 5% H20): Form II | Results (crystalline form of precipitate) (Test 449, Anti-Solvent (Ethanol) Addition Ambient Temperature, MeOH: 5% H20): No Solid | Results (crystalline form of precipitate) (Test 450, Anti-Solvent (Ethanol) Addition (4° C.), MeOH: 5% H20): Form II | Results (crystalline form of precipitate) (Test 451, Anti-Solvent (Ethanol) Addition (−21° C.), MeOH: 5% H20): Form II | Results (crystalline form of precipitate) (Test 456, Anti-Solvent (IPA) Addition Elevated Temperature, MeOH: 20% H20): Form II | Results (crystalline form of precipitate) (Test 457, Anti-Solvent (IPA) Addition Ambient Temperature, MeOH: 20% H20): Form II | Results (crystalline form of precipitate) (Test 458, Anti-Solvent (IPA) Addition (4° C.), MeOH: 20% H20): Form II | Results (crystalline form of precipitate) (Test 459, Anti-Solvent (IPA) Addition (−21° C.), MeOH: 20% H20): Form II | Results (crystalline form of precipitate) (Test 460, Anti-Solvent (Ethanol) Addition Ambient Temperature, MeOH: 20% H20): Form II | Results (crystalline form of precipitate) (Test 461, Anti-Solvent (Ethanol) Addition (4° C.), MeOH: 20% H20): Form II | Results (crystalline form of precipitate) (Test 462, Anti-Solvent (Ethanol) Addition (−21° C.), MeOH: 20% H20): Form I/II | Results (crystalline form of precipitate) (Test 467, Anti-Solvent (IPA) Addition Elevated Temperature, MeOH: 50% H20): Form II | Results (crystalline form of precipitate) (Test 468, Anti-Solvent (IPA) Addition Ambient Temperature, MeOH: 50% H20): No Solid | Results (crystalline form of precipitate) (Test 469, Anti-Solvent (IPA) Addition (4° C.), MeOH: 50% H20): Form II | Results (crystalline form of precipitate) (Test 470, Anti-Solvent (IPA) Addition (−21° C.), MeOH: 50% H20): No Solid | Results (crystalline form of precipitate) (Test 471, Anti-Solvent (Ethanol) Addition Ambient Temperature, MeOH: 50% H20): Form II | Results (crystalline form of precipitate) (Test 472, Anti-Solvent (Ethanol) Addition (4° C.), MeOH: 50% H20): Form I | Results (crystalline form of precipitate) (Test 473, Anti-Solvent (Ethanol) Addition (−21° C.), MeOH: 50% H20): Form I/II | Results (crystalline form of precipitate) (Test 478, Anti-Solvent (IPA) Addition Elevated Temperature, THF: 1% H20): No Solid | Results (crystalline form of precipitate) (Test 479, Anti-Solvent (IPA) Addition Ambient Temperature, THF: 1% H20): No Solid | Results (crystalline form of precipitate) (Test 480, Anti-Solvent (IPA) Addition (4° C.), THF: 1% H20): No Solid | Results (crystalline form of precipitate) (Test 481, Anti-Solvent (IPA) Addition (−21° C.), THF: 1% H20): No Solid | Results (crystalline form of precipitate) (Test 482, Anti-Solvent (Ethanol) Addition Ambient Temperature, THF: 1% H20): No Solid | Results (crystalline form of precipitate) (Test 483, Anti-Solvent (Ethanol) Addition (4° C.), THF: 1% H20): No Solid | Results (crystalline form of precipitate) (Test 484, Anti-Solvent (Ethanol) Addition (−21° C.), THF: 1% H20): No Solid | Results (crystalline form of precipitate) (Test 489, Anti-Solvent (IPA) Addition Elevated Temperature, THF: 3% H20): No Solid | Results (crystalline form of precipitate) (Test 490, Anti-Solvent (IPA) Addition Ambient Temperature, THF: 3% H20): Form II | Results (crystalline form of precipitate) (Test 491, Anti-Solvent (IPA) Addition (4° C.), THF: 3% H20): No Solid | Results (crystalline form of precipitate) (Test 492, Anti-Solvent (IPA) Addition (−21° C.), THF: 3% H20): No Solid | Results (crystalline form of precipitate) (Test 493, Anti-Solvent (Ethanol) Addition Ambient Temperature, THF: 3% H20): No Solid | Results (crystalline form of precipitate) (Test 494, Anti-Solvent (Ethanol) Addition (4° C.), THF: 3% H20): No Solid | Results (crystalline form of precipitate) (Test 495, Anti-Solvent (Ethanol) Addition (−21° C.), THF: 3% H20): No Solid | Results (crystalline form of precipitate) (Test 500, Anti-Solvent (IPA) Addition Elevated Temperature, THF: 5% H20): No Solid | Results (crystalline form of precipitate) (Test 501, Anti-Solvent (IPA) Addition Ambient Temperature, THF: 5% H20): No Solid | Results (crystalline form of precipitate) (Test 502, Anti-Solvent (IPA) Addition (4° C.), THF: 5% H20): Form II | Results (crystalline form of precipitate) (Test 503, Anti-Solvent (IPA) Addition (−21° C.), THF: 5% H20): No Solid | Results (crystalline form of precipitate) (Test 504, Anti-Solvent (Ethanol) Addition Ambient Temperature, THF: 5% H20): No Solid | Results (crystalline form of precipitate) (Test 505, Anti-Solvent (Ethanol) Addition (4° C.), THF: 5% H20): No Solid | Results (crystalline form of precipitate) (Test 506, Anti-Solvent (Ethanol) Addition (−21° C.), THF: 5% H20): No Solid | Results (crystalline form of precipitate) (Test 511, Anti-Solvent (IPA) Addition Elevated Temperature, butan-1-ol: 1% H20): No Solid | Results (crystalline form of precipitate) (Test 512, Anti-Solvent (IPA) Addition Ambient Temperature, butan-1-ol: 1% H20): No Solid | Results (crystalline form of precipitate) (Test 513, Anti-Solvent (IPA) Addition (4° C.), butan-1-ol: 1% H20): No Solid | Results (crystalline form of precipitate) (Test 514, Anti-Solvent (IPA) Addition (−21° C.), butan-1-ol: 1% H20): No Solid | Results (crystalline form of precipitate) (Test 515, Anti-Solvent (Ethanol) Addition Ambient Temperature, butan-1-ol: 1% H20): No Solid | Results (crystalline form of precipitate) (Test 516, Anti-Solvent (Ethanol) Addition (4° C.), butan-1-ol: 1% H20): No Solid | Results (crystalline form of precipitate) (Test 517, Anti-Solvent (Ethanol) Addition (−21° C.), butan-1-ol: 1% H20): No Solid | Results (crystalline form of precipitate) (Test 522, Anti-Solvent (IPA) Addition Elevated Temperature, butan-1-ol: 3% H20): No Solid | Results (crystalline form of precipitate) (Test 523, Anti-Solvent (IPA) Addition Ambient Temperature, butan-1-ol: 3% H20): No Solid | Results (crystalline form of precipitate) (Test 524, Anti-Solvent (IPA) Addition (4° C.), butan-1-ol: 3% H20): No Solid | Results (crystalline form of precipitate) (Test 525, Anti-Solvent (IPA) Addition (−21° C.), butan-1-ol: 3% H20): No Solid | Results (crystalline form of precipitate) (Test 526, Anti-Solvent (Ethanol) Addition Ambient Temperature, butan-1-ol: 3% H20): No Solid | Results (crystalline form of precipitate) (Test 527, Anti-Solvent (Ethanol) Addition (4° C.), butan-1-ol: 3% H20): No Solid | Results (crystalline form of precipitate) (Test 528, Anti-Solvent (Ethanol) Addition (−21° C.), butan-1-ol: 3% H20): No Solid | Results (crystalline form of precipitate) (Test 533, Anti-Solvent (IPA) Addition Elevated Temperature, butan-1-ol: 5% H20): No Solid | Results (crystalline form of precipitate) (Test 534, Anti-Solvent (IPA) Addition Ambient Temperature, butan-1-ol: 5% H20): Form II | Results (crystalline form of precipitate) (Test 535, Anti-Solvent (IPA) Addition (4° C.), butan-1-ol: 5% H20): No Solid | Results (crystalline form of precipitate) (Test 536, Anti-Solvent (IPA) Addition (−21° C.), butan-1-ol: 5% H20): No Solid | Results (crystalline form of precipitate) (Test 537, Anti-Solvent (Ethanol) Addition Ambient Temperature, butan-1-ol: 5% H20): No Solid | Results (crystalline form of precipitate) (Test 538, Anti-Solvent (Ethanol) Addition (4° C.), butan-1-ol: 5% H20): No Solid | Results (crystalline form of precipitate) (Test 539, Anti-Solvent (Ethanol) Addition (−21° C.), butan-1-ol: 5% H20): No Solid | Results (crystalline form of precipitate) (Test 542, Anti-Solvent Addition, 1,4-dioxane): No Solid | Results (crystalline form of precipitate) (Test 545, Anti-Solvent (Hexane) Addition (4° C.), 1-butanol): Form III | Results (crystalline form of precipitate) (Test 548, Anti-Solvent (Hexane) Addition (4° C.), ethanol): Form I | Results (crystalline form of precipitate) (Test 551, Anti-Solvent (Hexane) Addition (4° C.), acetone): Form III | Results (crystalline form of precipitate) (Test 554, Anti-Solvent (Hexane) Addition (4° C.), benzonitrile): Form II | Results (crystalline form of precipitate) (Test 557, Anti-Solvent (Hexane) Addition (4° C.), cyclohexane): No Solid | Results (crystalline form of precipitate) (Test 560, Anti-Solvent (Hexane) Addition (4° C.), DCM): Form III | Results (crystalline form of precipitate) (Test 563, Anti-Solvent (Hexane) Addition (4° C.), DMSO): No Solid/No | Results (crystalline form of precipitate) (Test 566, Anti-Solvent (Hexane) Addition (4° C.), EtOAc): Form III | Results (crystalline form of precipitate) (Test 569, Anti-Solvent (Hexane) Addition (4° C.), Heptane): No Solid/No | Results (crystalline form of precipitate) (Test 572, Anti-Solvent (Hexane) Addition (4° C.), IPA): No Solid | Results (crystalline form of precipitate) (Test 575, Anti-Solvent (Hexane) Addition (4° C.), IPA: Water (1%)): No Solid/No | Results (crystalline form of precipitate) (Test 578, Anti-Solvent (Hexane) Addition (4° C.), MeCN): Form I/III | Results (crystalline form of precipitate) (Test 581, Anti-Solvent (Hexane) Addition (4° C.), MeCN: Water (1%)): No Solid | Results (crystalline form of precipitate) (Test 584, Anti-Solvent (Hexane) Addition (4° C.), MEK): Form III | Results (crystalline form of precipitate) (Test 587, Anti-Solvent (Hexane) Addition (4° C.), MeOAc): Form III | Results (crystalline form of precipitate) (Test 590, Anti-Solvent (Hexane) Addition (4° C.), MeOH): Form III | Results (crystalline form of precipitate) (Test 593, Anti-Solvent (Hexane) Addition (4° C.), MIBK): No Solid | Results (crystalline form of precipitate) (Test 596, Anti-Solvent (Hexane) Addition (4° C.), Nitromethane): Form I | Results (crystalline form of precipitate) (Test 599, Anti-Solvent (Hexane) Addition (4° C.), TBME): Form I | Results (crystalline form of precipitate) (Test 602, Anti-Solvent (Hexane) Addition (4° C.), THF): Form I/III | Results (crystalline form of precipitate) (Test 605, Anti-Solvent (Hexane) Addition (4° C.), THF: water (1%)): No Solid | Results (crystalline form of precipitate) (Test 608, Anti-Solvent (Hexane) Addition (4° C.), toluene): Form III | Results (crystalline form of precipitate) (Test 611, Anti-Solvent (Hexane) Addition (4° C.), water): Form III
